# Primary screen of a compound library

The chains behind the UniProt entries cited, without tags or fusion partners.
UniProt E9BF75, entry or part of it: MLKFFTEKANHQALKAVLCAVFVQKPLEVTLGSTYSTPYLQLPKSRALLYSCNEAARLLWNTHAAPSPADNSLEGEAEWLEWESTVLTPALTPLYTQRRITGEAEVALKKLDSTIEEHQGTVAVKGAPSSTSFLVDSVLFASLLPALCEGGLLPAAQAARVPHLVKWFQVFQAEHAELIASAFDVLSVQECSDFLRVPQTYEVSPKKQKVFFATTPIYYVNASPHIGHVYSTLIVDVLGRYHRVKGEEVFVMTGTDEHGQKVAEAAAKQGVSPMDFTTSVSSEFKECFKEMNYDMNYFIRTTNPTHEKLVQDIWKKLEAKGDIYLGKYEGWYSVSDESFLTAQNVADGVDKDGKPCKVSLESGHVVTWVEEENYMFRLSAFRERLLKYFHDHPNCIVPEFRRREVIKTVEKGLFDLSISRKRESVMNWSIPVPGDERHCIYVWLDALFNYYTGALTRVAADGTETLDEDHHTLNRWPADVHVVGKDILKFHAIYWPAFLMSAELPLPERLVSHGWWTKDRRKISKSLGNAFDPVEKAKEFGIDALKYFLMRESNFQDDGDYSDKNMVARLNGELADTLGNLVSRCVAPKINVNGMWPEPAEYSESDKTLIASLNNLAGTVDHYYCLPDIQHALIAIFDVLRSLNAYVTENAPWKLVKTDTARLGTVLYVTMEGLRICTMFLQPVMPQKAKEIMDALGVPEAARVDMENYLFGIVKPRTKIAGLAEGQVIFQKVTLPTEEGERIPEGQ

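Methionyl-tRNA synthetase (putative), Leishmania donovani (UniProt E9BF75). Primary screen of methionyl-tRNA synthetase; the read-out is not stated. The test concentration is not given. Values are per cent inhibition. Size under these conditions: about 68,000 compounds, about 24 of them at 50% or above in at least one test.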

Results are percentages, as filed.
The controls that fix the scale are not given in the record; negative values are as filed.
The compounds are a random part of those screened.

With CSCC(CCO)NC(=O)Nc1ccc(C)cc1Br (stereo unspecified) the screen gave 16.86%. For COc1ccc2c(C)nc(N3CCN([C@H]4CCCC[C@@H]4O)CC3)nc2c1 the result was 4.969%. With CC(=O)C1(c2ccccc2)CCN(C(=O)c2ccc3nnnn3c2)CC1 the screen gave 6.269%. Result for Cc1ccc(-c2ccccc2CC2(C(=O)NC(C)C)CCCNC2)cc1 (stereo unspecified) was 17.44%. Result for Cc1nc(COC[C@H]2CCC[C@]23CN(CC2CC2)CCO3)cs1 was 3.333%. Result for CCC(CC)C(=O)N1CCOC2(CNC2)C1 was 5%. c1cnn(CC2CCCN2c2ncnc3sccc23)c1 (stereo unspecified) gave 5.397%. NC(=O)CN1CCC(C(=O)NCc2ccc3nonc3c2)CC1 read 9.756%.

CCCn1ccnc1SCCNS(=O)(=O)c1ccccc1 read 7.453%. O=C1CNc2ncnc(Nc3cnn(Cc4ccc(F)cc4)c3)c2N1 read 13.98%. Result for Cc1ccc(C(=O)N(Cc2ccccc2F)C2CC2)c(=O)[nH]1 was 8.437%. For CN(C)C(=O)c1nc2c(n1C)CCN(Cc1ccccc1)C2 the result was 13.87%. Result for CC(=O)OC1CN(c2nc3c(C)cccc3s2)C1 was 16.62%. O=C(NCCNC(=O)c1ccc(Br)cc1)c1ccc(O)cc1 gave 10.21%. CN1CCN(CC(CC(=O)Nc2ccc(Cl)cc2)C(=O)O)CC1 (stereo unspecified) gave 9.115%. For O=C(CC(F)(F)F)N1C[C@H]2CC[C@@H]1CN(Cc1ccccc1)C2 the result was 12.8%.

COC(=O)NCC(=O)NCC(C)(C)c1cccc(Br)c1 read 17.58%. CC(C)c1noc(-c2ccc(NCc3noc(C(C)C)n3)nc2)n1 gave 12.59%. Result for CC(NC(=O)Nc1ccccc1CN1CCOCC1)c1nnc(N)s1 (stereo unspecified) was 4.27%. For O=C(NC1CC1)C1CN(c2nc3ccccc3s2)CCN1 (stereo unspecified) the result was 9.582%. With CN(C)C(=O)c1noc2c1CN(C(=O)CCC1CCCCN1C)CC2 (stereo unspecified) the screen gave 8.38%. COCCOc1ccc(Cl)c(C(=O)N2CCN(CCO)CC2)n1 read 6.553%. For CCOC(=O)c1sc(NC(=O)c2cc(=O)c(OC)c[nH]2)nc1C the result was 17.27%. Result for CN1CCNC(Cc2ccc(-c3ccncc3)cc2)C1=O (stereo unspecified) was 16.08%.

For CCC(Nc1ccc(Oc2ccccc2OC)cc1)C(N)=O (stereo unspecified) the result was 14.09%. CCOc1ccccc1C1=CCN(C(=O)C2CCN(C)C(=O)C2)CC1 (stereo unspecified) read 12.57%. Result for O=C1CC2(CCN(c3nncs3)C2)CN1c1cccc(F)c1 (stereo unspecified) was 12.69%. Result for Cc1nn(C)c2c(N3CCN(C(=O)C4CC4)CC3)ncnc12 was -35.43%. Result for CC1CCCN(C(=O)C2CCN(c3snc4ccccc34)CC2)C1 (stereo unspecified) was 19.77%. Result for O=C(c1cncnc1)N1C[C@@H]2CC[C@H](Oc3cccc(F)c3)[C@@H]2C1 was 15.53%. Cc1cc(C(=O)N2CCc3nc(C4CCCN4)ncc3C2)cs1 (stereo unspecified) gave 18.01%. O=C(c1ccco1)N1C[C@@H]2CCN(c3cccnc3)C[C@@H]2C1 gave 8.571%.

O=C(NCC(F)F)c1ccc(S(=O)(=O)N2CCCC(O)C2)cc1 (stereo unspecified) read 3.125%. For COc1ccccc1CC(=O)N1CCC(NCc2ccccn2)CC1 the result was 10.48%. With O=C(c1ccco1)N1CCN(Cc2nc(C3CC3)no2)CC1 the screen gave 14.7%. Cc1ccc(CNCC2CCN(CCO)CC2)cc1 gave 3.01%. O=C(NCc1cc[nH]n1)N1CCN(c2ccccc2Cl)CC1 read 8.661%. With O=C(c1cnccn1)N1C[C@@H](c2ccccc2)[C@@]2(CCNC2=O)C1 the screen gave 18.48%. CCN1C(=O)CCC12CCN(S(=O)(=O)c1ccccc1)CC2 gave 10.56%. For Cc1csc([C@@H]2C[C@@H]3CCN(Cc4cnn(C)c4)C[C@H]3O2)n1 the result was 5.512%.

For Cc1noc([C@@H]2C[C@H](NC(=O)NC(C)C)CN2C)n1 the result was 0.339%. With Cc1ccc(CN(C(=O)NC2CCS(=O)(=O)C2)C2CC2)o1 (stereo unspecified) the screen gave 7.627%. With Cc1cc(C)nc(N2CCCC(c3nccn3CCCN(C)C)C2)c1 (stereo unspecified) the screen gave 12.81%.

3 of the entries, repeated:

- Cc1cc(C(=O)N2CCc3nc(C4CCCN4)ncc3C2)cs1 (stereo unspecified) : 18.01%
- Cc1nn(C)c2c(N3CCN(C(=O)C4CC4)CC3)ncnc12 : -35.43%
- O=C(c1cnccn1)N1C[C@@H](c2ccccc2)[C@@]2(CCNC2=O)C1 : 18.48%

The values are deposited in ChEMBL (CHEMBL3988442, “University of Dundee, Small-Polar-MMV Screening Library” (2021)).